The experiment addresses CDK12 (a.a. 713–1,052) (human) (UniProt Q9NYV4). In words: crystal structure; DDB1ΔB (70 µM), CDK12–cyclin K (80 µM) and compound (80–120 µM) in 50 mM HEPES 7.4, 200 mM NaCl, 0.25 mM TCEP; sitting drop, 20 °C; molecular replacement with PDB 6TD3; both purified.

Chains of the proteins cited; added tags and fusions are not shown. Lines headed by an entry give the natural chain unless they say otherwise; changes in a name come on top. A line that says so, or that is headed by a name, gives the form on record, which may keep a tag or linker.
CDK12 (a.a. 713–1,052) (Q9NYV4, form named): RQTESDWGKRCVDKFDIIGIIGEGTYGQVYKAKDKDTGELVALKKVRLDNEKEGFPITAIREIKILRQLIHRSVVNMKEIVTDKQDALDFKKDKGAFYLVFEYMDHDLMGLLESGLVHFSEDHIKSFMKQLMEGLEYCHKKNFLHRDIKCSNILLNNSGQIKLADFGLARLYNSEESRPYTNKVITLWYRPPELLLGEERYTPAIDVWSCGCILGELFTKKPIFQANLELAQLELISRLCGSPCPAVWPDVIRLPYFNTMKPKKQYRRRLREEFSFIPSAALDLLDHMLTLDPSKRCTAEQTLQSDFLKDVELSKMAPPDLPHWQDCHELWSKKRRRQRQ

Results are given in words; binding and its absence hold for the method and conditions named. Some entries that bind do so weakly or less than the wild type.

B1: cyclin K (a.a. 1–267) (domain or fragment, UniProt O75909 1-267)
chain: MKENKENSSPSVTSANLDHTKPCWYWDKKDLAHTPSQLEGLDPATEARYRREGARFIFDVGTRLGLHYDTLATGIIYFHRFYMFHSFKQFPRYVTGACCLFLAGKVEETPKKCKDIIKTARSLLNDVQFGQFGDDPKEEVMVLERILLQTIKFDLQVEHPYQFLLKYAKQLKGDKNKIQKLVQMAWTFVNDSLCTTLSLQWEPEIIAVAVMYLAGRLCKFEIQEWTSKPMYRRWWEQFVQDVPVDVLEDICHQILDLYSQGKQQMPH
B1: the binding entry is “binds”.

Values taken from article PMC10746543, “Design principles for cyclin K molecular glue degraders” (Nature Chemical Biology, 2023).
